Source: the supplement of paper PMC10849652
The other results are listed elsewhere or left out.

Sequences of proteins named here, by UniProt entry; tags and fusion partners are left off. A change or cut given only in a name is not applied to a line headed by its entry.
UniProt Q9BTT4: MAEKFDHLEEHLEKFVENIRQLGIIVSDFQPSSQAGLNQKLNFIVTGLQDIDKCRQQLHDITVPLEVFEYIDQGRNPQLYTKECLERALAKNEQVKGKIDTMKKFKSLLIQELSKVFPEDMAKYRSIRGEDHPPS
UniProt Q96N66: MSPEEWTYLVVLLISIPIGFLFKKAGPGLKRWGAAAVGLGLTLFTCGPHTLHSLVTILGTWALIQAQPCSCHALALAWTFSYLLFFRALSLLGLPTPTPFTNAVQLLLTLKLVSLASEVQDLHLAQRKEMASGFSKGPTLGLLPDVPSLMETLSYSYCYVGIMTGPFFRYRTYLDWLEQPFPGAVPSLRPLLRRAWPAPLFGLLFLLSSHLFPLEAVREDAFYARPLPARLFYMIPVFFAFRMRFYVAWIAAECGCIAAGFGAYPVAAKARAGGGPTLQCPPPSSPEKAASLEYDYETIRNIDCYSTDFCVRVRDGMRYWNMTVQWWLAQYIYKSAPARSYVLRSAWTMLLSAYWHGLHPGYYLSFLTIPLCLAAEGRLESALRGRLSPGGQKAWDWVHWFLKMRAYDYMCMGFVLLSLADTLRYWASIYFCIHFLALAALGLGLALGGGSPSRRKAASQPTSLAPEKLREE
UniProt Q86XN8: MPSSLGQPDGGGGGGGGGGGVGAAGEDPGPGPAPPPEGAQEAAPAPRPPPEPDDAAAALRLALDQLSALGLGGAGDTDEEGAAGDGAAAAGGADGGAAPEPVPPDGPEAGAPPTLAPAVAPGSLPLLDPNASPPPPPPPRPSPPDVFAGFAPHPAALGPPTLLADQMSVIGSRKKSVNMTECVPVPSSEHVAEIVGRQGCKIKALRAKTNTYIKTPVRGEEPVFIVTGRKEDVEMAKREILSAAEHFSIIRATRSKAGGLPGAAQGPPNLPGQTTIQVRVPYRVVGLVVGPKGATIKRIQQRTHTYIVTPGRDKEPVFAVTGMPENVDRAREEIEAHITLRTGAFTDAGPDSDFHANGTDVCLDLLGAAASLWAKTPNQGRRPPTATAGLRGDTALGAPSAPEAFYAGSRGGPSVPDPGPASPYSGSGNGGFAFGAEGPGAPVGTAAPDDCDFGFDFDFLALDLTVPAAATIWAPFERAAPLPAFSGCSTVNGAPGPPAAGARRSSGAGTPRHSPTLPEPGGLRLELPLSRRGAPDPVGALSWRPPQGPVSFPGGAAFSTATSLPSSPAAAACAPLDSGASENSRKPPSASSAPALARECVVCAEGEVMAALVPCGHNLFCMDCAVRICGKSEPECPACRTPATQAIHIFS
UniProt Q6N075: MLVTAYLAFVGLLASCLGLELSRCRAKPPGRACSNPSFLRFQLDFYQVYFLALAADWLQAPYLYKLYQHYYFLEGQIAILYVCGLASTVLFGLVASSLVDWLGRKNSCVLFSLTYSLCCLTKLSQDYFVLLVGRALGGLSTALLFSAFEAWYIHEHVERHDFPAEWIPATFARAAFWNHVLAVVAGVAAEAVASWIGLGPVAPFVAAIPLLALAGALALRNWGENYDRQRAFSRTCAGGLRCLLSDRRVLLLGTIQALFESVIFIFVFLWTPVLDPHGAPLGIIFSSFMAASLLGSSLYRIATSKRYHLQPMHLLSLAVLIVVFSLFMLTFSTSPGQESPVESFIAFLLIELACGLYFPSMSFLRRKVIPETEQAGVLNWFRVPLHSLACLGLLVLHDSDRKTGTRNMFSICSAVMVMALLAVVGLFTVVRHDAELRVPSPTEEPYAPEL
UniProt Q9Y316: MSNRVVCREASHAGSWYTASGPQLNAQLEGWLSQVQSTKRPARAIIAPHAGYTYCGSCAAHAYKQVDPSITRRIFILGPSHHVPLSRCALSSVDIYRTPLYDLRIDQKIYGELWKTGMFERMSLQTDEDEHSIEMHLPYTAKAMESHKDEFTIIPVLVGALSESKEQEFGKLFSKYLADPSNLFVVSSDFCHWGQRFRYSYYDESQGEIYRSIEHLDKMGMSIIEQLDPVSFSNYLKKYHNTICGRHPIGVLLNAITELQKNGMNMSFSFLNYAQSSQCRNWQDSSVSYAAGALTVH
UniProt P33993, whole entry, looked up: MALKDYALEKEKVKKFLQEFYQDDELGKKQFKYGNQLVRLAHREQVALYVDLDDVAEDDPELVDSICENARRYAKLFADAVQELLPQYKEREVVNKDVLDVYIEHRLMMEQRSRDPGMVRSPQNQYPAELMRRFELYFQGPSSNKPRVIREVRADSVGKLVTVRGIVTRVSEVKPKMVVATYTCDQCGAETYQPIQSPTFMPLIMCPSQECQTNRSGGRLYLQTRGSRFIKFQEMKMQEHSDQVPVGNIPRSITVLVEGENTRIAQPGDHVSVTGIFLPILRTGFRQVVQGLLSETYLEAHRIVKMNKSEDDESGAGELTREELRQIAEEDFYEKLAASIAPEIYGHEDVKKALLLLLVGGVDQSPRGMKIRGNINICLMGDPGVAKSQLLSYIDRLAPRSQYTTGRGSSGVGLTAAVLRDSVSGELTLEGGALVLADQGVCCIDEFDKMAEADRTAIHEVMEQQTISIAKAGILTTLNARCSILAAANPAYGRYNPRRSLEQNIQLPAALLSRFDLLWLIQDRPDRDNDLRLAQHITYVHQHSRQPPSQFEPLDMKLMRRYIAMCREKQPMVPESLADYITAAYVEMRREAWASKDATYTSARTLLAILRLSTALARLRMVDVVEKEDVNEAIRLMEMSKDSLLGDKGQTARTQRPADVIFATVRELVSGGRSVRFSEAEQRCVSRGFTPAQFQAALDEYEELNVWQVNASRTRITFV
UniProt P43121, whole entry, looked up: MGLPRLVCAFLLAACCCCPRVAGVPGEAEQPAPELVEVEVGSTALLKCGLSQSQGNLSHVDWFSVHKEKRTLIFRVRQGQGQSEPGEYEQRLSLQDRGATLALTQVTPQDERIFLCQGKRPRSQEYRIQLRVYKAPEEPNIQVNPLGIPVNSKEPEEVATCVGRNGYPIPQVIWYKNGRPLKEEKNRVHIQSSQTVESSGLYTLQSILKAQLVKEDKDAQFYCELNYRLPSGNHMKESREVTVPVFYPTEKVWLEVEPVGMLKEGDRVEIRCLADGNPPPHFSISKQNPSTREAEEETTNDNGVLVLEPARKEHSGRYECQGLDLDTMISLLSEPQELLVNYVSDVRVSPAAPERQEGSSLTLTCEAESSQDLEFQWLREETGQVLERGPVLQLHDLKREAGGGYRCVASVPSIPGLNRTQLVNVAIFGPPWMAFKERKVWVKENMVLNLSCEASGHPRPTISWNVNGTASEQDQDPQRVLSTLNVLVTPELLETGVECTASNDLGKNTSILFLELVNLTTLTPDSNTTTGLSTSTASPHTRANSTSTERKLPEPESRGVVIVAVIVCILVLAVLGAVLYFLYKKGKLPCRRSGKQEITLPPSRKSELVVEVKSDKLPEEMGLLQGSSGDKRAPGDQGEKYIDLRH
UniProt Q93074, whole entry, looked up: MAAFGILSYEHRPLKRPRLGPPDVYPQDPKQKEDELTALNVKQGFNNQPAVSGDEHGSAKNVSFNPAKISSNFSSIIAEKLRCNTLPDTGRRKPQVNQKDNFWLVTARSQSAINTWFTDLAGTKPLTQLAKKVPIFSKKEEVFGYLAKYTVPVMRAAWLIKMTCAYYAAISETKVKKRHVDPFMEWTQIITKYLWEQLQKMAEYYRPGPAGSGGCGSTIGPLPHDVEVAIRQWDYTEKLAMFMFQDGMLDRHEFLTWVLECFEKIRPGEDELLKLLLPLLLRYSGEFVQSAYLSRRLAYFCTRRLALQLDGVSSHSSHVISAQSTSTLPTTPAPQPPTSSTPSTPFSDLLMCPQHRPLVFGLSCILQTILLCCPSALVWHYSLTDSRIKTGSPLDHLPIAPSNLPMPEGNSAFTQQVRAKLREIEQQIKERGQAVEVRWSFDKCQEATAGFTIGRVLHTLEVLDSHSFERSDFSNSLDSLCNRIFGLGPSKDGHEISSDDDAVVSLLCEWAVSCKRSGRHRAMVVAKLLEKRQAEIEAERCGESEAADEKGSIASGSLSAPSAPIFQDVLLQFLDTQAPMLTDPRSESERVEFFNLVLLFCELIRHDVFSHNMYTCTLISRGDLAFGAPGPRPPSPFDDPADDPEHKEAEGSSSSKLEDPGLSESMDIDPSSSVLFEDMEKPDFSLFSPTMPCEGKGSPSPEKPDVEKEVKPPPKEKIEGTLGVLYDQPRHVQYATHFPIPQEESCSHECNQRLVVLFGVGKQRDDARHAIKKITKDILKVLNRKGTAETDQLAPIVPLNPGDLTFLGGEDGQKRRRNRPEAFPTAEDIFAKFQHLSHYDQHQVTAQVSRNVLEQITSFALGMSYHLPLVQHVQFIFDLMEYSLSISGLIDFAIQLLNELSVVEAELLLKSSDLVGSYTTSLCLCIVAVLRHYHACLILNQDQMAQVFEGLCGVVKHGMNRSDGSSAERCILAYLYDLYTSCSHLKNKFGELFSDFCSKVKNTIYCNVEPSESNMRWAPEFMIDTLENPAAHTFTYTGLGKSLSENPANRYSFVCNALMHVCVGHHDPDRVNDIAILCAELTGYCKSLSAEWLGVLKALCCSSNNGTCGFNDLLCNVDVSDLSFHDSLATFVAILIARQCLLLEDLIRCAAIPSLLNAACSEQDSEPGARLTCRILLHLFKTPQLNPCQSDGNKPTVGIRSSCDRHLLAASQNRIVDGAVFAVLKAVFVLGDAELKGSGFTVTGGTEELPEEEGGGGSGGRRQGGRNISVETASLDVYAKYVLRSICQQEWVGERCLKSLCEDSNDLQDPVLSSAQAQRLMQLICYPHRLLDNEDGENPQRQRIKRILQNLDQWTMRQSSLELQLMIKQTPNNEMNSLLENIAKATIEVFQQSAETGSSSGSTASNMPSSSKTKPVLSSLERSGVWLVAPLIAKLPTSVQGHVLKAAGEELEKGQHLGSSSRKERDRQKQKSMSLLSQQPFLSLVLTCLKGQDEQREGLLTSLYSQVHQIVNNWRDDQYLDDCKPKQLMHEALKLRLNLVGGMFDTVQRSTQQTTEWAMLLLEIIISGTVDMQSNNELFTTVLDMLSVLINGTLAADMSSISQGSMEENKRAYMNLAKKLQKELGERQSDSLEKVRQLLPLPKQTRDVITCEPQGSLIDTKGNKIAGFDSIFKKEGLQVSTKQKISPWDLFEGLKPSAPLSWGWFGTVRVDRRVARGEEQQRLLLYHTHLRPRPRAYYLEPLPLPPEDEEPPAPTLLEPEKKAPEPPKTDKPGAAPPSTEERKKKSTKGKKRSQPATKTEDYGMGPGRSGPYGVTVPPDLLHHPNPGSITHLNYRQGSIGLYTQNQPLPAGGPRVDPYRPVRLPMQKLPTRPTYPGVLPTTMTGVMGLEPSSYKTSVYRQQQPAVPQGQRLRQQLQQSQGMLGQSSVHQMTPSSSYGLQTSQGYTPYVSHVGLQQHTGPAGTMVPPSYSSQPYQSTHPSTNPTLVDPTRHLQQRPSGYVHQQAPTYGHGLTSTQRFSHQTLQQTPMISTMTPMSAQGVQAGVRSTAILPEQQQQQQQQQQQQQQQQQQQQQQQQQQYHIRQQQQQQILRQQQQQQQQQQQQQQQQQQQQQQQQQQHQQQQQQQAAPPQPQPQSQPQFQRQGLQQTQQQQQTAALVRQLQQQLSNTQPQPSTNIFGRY
UniProt Q7Z434: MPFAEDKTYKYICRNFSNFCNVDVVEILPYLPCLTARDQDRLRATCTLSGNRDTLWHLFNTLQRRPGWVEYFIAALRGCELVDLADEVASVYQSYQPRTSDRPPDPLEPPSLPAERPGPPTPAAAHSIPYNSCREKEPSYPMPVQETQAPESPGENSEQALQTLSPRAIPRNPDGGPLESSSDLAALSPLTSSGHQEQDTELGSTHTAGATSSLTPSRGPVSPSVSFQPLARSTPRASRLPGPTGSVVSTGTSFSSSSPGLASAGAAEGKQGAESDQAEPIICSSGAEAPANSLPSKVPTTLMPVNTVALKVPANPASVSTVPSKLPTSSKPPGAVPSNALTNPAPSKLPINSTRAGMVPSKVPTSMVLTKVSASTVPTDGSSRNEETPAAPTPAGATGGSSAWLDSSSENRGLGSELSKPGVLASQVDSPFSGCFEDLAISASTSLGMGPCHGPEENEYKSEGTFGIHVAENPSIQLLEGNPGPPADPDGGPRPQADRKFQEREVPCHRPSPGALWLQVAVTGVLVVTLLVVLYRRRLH
UniProt P40925: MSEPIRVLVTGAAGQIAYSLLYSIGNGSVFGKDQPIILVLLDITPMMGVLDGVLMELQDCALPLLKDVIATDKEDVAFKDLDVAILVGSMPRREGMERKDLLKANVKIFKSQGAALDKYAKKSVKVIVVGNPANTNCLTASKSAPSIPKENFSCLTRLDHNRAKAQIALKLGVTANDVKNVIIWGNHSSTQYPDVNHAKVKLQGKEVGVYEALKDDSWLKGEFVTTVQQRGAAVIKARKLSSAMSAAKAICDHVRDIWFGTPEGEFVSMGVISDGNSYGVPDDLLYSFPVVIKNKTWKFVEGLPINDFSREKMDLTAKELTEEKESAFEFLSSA
UniProt P61244, whole entry, looked up: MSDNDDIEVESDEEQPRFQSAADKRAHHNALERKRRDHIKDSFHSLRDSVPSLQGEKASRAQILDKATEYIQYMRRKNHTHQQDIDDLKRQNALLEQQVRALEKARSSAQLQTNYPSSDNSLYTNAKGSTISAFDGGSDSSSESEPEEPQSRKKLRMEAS

How the values were obtained:
Experiment in all cases: log2 fold change, soluble protein after heating vs DMSO (PISA); higher = thermal stabilisation; K562 lysate, 10 uM; active = over 0.2 and 3.5 SD of the protein, either way, in both replicates (recomputed)
lapatinib = compound: CS(=O)(=O)CCNCc1ccc(-c2ccc3ncnc(Nc4ccc(OCc5cccc(F)c5)c(Cl)c4)c3c2)o1 [lapatinib]
Summary of the method: (§1)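 Values give the log-two fold change in thermal stability against solvent controls, from duplicates. Crude K562 extract at 1 mg/mL protein, made by dounce homogenisation in PBS pH 7.4 with 1 mM MgCl2, was treated with 10 μM compound for 30 min. After 3 min heating across 48°C-58°C, aliquots were pooled, adjusted to 0.5% NP-40 at 4°C and centrifuged at 21,000xg for 90 min. The supernatant was measured by TMTpro 16plex LC-MS/MS with channel sums equalised.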

pictilisib = compound: CS(=O)(=O)N1CCN(Cc2cc3nc(-c4cccc5[nH]ncc45)nc(N4CCOCC4)c3s2)CC1 [pictilisib]
Summary of the method: as §1

crizotinib = compound: C[C@@H](Oc1cc(-c2cnn(C3CCNCC3)c2)cnc1N)c1c(Cl)ccc(F)c1Cl [crizotinib]
Summary of the method: as §1

[1] = compound: C[C@H](C1=CC=C(C=C1)C(=O)NC2=C3C=CNC3=NC=C2)N
Summary of the method: as §1

duvelisib = compound: C[C@H](Nc1ncnc2nc[nH]c12)c1cc2cccc(Cl)c2c(=O)n1-c1ccccc1 [duvelisib]
Summary of the method: as §1

gandotinib = compound: Cc1cc(Nc2cc(CN3CCOCC3)c3nc(C)c(Cc4ccc(Cl)cc4F)n3n2)n[nH]1 [gandotinib]
Summary of the method: as §1

tozasertib = compound: Cc1cc(Nc2cc(N3CCN(C)CC3)nc(Sc3ccc(NC(=O)C4CC4)cc3)n2)n[nH]1 [tozasertib]
Summary of the method: as §1

doramapimod = compound: Cc1ccc(-n2nc(C(C)(C)C)cc2NC(=O)Nc2ccc(OCCN3CCOCC3)c3ccccc23)cc1 [doramapimod]
Summary of the method: as §1

bafetinib = compound: Cc1ccc(NC(=O)c2ccc(CN3CC[C@H](N(C)C)C3)c(C(F)(F)F)c2)cc1Nc1nccc(-c2cncnc2)n1 [bafetinib]
Summary of the method: as §1

[2] = compound: Cc1cccc(CC(=O)N2CCc3c2ccc(-c2cn(C)c4ncnc(N)c24)c3F)n1
Summary of the method: as §1

nilotinib = compound: Cc1cn(-c2cc(NC(=O)c3ccc(C)c(Nc4nccc(-c5cccnc5)n4)c3)cc(C(F)(F)F)c2)cn1 [nilotinib]
Summary of the method: as §1

[3] = compound: Cc1nc(Nc2n[nH]c3c2CN(C(=O)N[C@H](CN(C)C)c2ccccc2)C3(C)C)c2sccc2n1
Summary of the method: as §1

dasatinib = compound: Cc1nc(Nc2ncc(C(=O)Nc3c(C)cccc3Cl)s2)cc(N2CCN(CCO)CC2)n1 [dasatinib]
Summary of the method: as §1

[4] = compound: Cc1ncc(-c2ccnc(Nc3ccc(S(C)(=O)=O)cc3)n2)n1C(C)C
Summary of the method: as §1

[5] = compound: Cn1cc(-c2ccc3c(c2)CCN3C(=O)Cc2cccc(C(F)(F)F)c2)c2c(N)ncnc21
Summary of the method: as §1

quisinostat = compound: Cn1cc(CNCC2CCN(c3ncc(C(=O)NO)cn3)CC2)c2ccccc21 [quisinostat]
Summary of the method: as §1

tipifarnib = compound: Cn1cncc1[C@@](N)(c1ccc(Cl)cc1)c1ccc2c(c1)c(-c1cccc(Cl)c1)cc(=O)n2C [tipifarnib]
Summary of the method: as §1

[6] = compound: NC(=O)Nc1cc(-c2cccc(F)c2)sc1C(=O)N[C@H]1CCCNC1
Summary of the method: as §1

[7] = compound: NC(=O)c1cnc(N[C@@H]2CCCC[C@@H]2N)nc1Nc1cccc(-n2nccn2)c1
Summary of the method: as §1

[8] = compound: NC1(c2ccc(-c3nc4ccn5c(=O)[nH]nc5c4cc3-c3ccccc3)cc2)CCC1
Summary of the method: as §1

Measured: log2 fold change

MED10 (UniProt Q9BTT4)
inactive: lapatinib 0.107 | pictilisib 0.232 | crizotinib 0.016 | [1] -0.024 | duvelisib 0.016 | gandotinib 0.04 | tozasertib -0.057 | doramapimod 0.014 | bafetinib 0.187 | [2] 0.055 | nilotinib 0.042 | [3] -0.012 | dasatinib 0.031 | [4] -0.021 | [5] 0.043 | quisinostat 0.04 | tipifarnib -0.066 | [6] -0.082 | [7] 0.025 | [8] -0.045

MBOAT7 (UniProt Q96N66)
inactive: lapatinib -0.096 | pictilisib -0.013 | crizotinib 0.044 | [1] -0.133 | duvelisib -0.03 | gandotinib -0.022 | tozasertib -0.03 | doramapimod -0.076 | bafetinib -0.024 | [2] 0.11 | nilotinib -0.001 | [3] -0.021 | dasatinib -0.03 | [4] 0.006 | [5] -0.036 | quisinostat 0.028 | tipifarnib 0.057 | [6] 0.023 | [7] -0.014 | [8] -0.011

MEX3D isoform 3 (UniProt Q86XN8)
inactive: lapatinib -0.018 | pictilisib -0.055 | crizotinib -0.024 | [1] -0.007 | duvelisib -0.145 | gandotinib -0.002 | tozasertib -0.182 | doramapimod 0.071 | bafetinib 0.113 | [2] 0.03 | nilotinib -0.011 | [3] 0.066 | dasatinib 0.15 | [4] 0.016 | [5] -0.16 | quisinostat -0.041 | tipifarnib -0.057 | [6] 0.056 | [7] 0.076 | [8] 0.029

MBNL1 (UniProt C9JP00)
inactive: lapatinib 0.029 | pictilisib -0.089 | crizotinib 0.037 | [1] 0.015 | duvelisib -0.056 | gandotinib -0.047 | tozasertib 0.027 | doramapimod -0.015 | bafetinib 0.06 | [2] -0.019 | nilotinib -0.009 | [3] 0.031 | dasatinib -0.096 | [4] -0.009 | [5] -0.001 | quisinostat 0.05 | tipifarnib -0.048 | [6] 0.069 | [7] 0.024 | [8] 0.098

MFSD5 isoform 2 (UniProt Q6N075)
inactive: lapatinib 0.079 | pictilisib -0.09 | crizotinib 0.006 | [1] -0.067 | duvelisib -0.036 | gandotinib 0.057 | tozasertib 0.007 | doramapimod -0.017 | bafetinib -0.067 | [2] 0.012 | nilotinib 0.132 | [3] 0.073 | dasatinib 0.001 | [4] -0.002 | [5] -0.058 | quisinostat 0 | tipifarnib -0.132 | [6] 0.023 | [7] -0.145 | [8] -0.147

MEMO1 (UniProt Q9Y316)
inactive: lapatinib 0.02 | pictilisib -0.004 | crizotinib -0.011 | [1] -0.028 | duvelisib -0.014 | gandotinib -0.006 | tozasertib 0.027 | doramapimod -0.002 | bafetinib 0.039 | [2] -0.012 | nilotinib 0.031 | [3] 0.018 | dasatinib -0.033 | [4] 0.03 | [5] 0.008 | quisinostat 0.031 | tipifarnib 0.023 | [6] 0.046 | [7] -0.002 | [8] -0.021

MDN1 (UniProt Q9NU22)
inactive: lapatinib -0.004 | pictilisib -0.02 | crizotinib -0.092 | [1] -0.12 | duvelisib 0.045 | gandotinib 0.04 | tozasertib 0.022 | doramapimod 0.009 | bafetinib -0.055 | [2] 0.157 | nilotinib 0.031 | [3] -0.006 | dasatinib -0.07 | [4] 0.036 | [5] 0.008 | quisinostat -0.124 | tipifarnib -0.027 | [6] 0.035 | [7] -0.001 | [8] -0.047

METAP1 (UniProt P53582)
inactive: lapatinib -0.014 | pictilisib 0.014 | crizotinib 0.002 | [1] -0.215 | duvelisib -0.037 | gandotinib 0.065 | tozasertib 0.013 | doramapimod 0.029 | bafetinib -0.026 | [2] 0.049 | nilotinib 0.016 | [3] -0.022 | dasatinib -0.054 | [4] -0.021 | [5] 0.009 | quisinostat 0.002 | tipifarnib 0.023 | [6] 0.025 | [7] -0.012 | [8] 0.007

MCM7 (UniProt P33993)
inactive: lapatinib -0.012 | pictilisib 0.006 | crizotinib -0.01 | [1] 0.023 | duvelisib 0.044 | gandotinib -0.04 | tozasertib -0.014 | doramapimod 0.003 | bafetinib -0.041 | [2] 0.028 | nilotinib 0.014 | [3] -0.014 | dasatinib 0.022 | [4] 0.009 | [5] 0.061 | quisinostat -0.002 | tipifarnib 0.027 | [6] 0.015 | [7] 0.01 | [8] -0.049

MCAM (UniProt P43121)
inactive: lapatinib -0.007 | pictilisib -0.023 | crizotinib 0.024 | [1] -0.054 | duvelisib 0.009 | gandotinib 0.066 | tozasertib -0.05 | doramapimod -0.044 | bafetinib -0.017 | [2] -0.003 | nilotinib 0.028 | [3] -0.008 | dasatinib 0.023 | [4] 0.013 | [5] -0.023 | quisinostat 0.016 | tipifarnib 0.011 | [6] 0.029 | [7] 0.001 | [8] -0.015

MCCC1 (UniProt Q96RQ3)
inactive: lapatinib -0.022 | pictilisib -0.038 | crizotinib -0.004 | [1] 0.106 | duvelisib 0.017 | gandotinib -0.14 | tozasertib -0.019 | doramapimod 0.003 | bafetinib -0.048 | [2] -0.093 | nilotinib -0.025 | [3] 0.002 | dasatinib -0.103 | [4] 0.027 | [5] 0.008 | quisinostat -0.049 | tipifarnib 0.031 | [6] 0.035 | [7] 0.008 | [8] -0.045

MED12 isoform 2 (UniProt Q93074)
inactive: lapatinib 0.009 | pictilisib 0.017 | crizotinib -0.017 | [1] 0.002 | duvelisib 0 | gandotinib -0.072 | tozasertib -0.033 | doramapimod 0.011 | bafetinib -0.012 | [2] -0.011 | nilotinib -0.017 | [3] -0.025 | dasatinib -0.024 | [4] -0.009 | [5] 0.01 | quisinostat -0.05 | tipifarnib 0.005 | [6] 0.034 | [7] 0.019 | [8] 0.002

MAVS (UniProt Q7Z434)
inactive: lapatinib 0.01 | pictilisib -0.019 | crizotinib 0 | [1] -0.037 | duvelisib 0.022 | gandotinib 0.029 | tozasertib 0.037 | doramapimod -0.027 | bafetinib -0.009 | [2] 0.023 | nilotinib 0.032 | [3] -0.041 | dasatinib 0.002 | [4] -0.037 | [5] -0.022 | quisinostat -0.03 | tipifarnib -0.009 | [6] -0.003 | [7] -0.013 | [8] 0.018

MDH1 isoform 3 (UniProt P40925)
inactive: lapatinib -0.024 | pictilisib 0.016 | crizotinib 0.027 | [1] -0.021 | duvelisib -0.011 | gandotinib 0 | tozasertib 0.002 | doramapimod -0.023 | bafetinib 0.085 | [2] -0.061 | nilotinib 0.001 | [3] 0.013 | dasatinib 0.01 | [4] 0.033 | [5] 0.001 | quisinostat 0.052 | tipifarnib 0.029 | [6] -0.034 | [7] -0.037 | [8] 0.004

MCU (UniProt Q8NE86)
active: gandotinib -0.311
inactive: lapatinib -0.145 | pictilisib -0.041 | crizotinib -0.125 | [1] -0.03 | duvelisib 0.037 | tozasertib -0.02 | doramapimod 0.085 | bafetinib -0.108 | [2] 0.032 | nilotinib -0.044 | [3] 0.012 | dasatinib -0.065 | [4] 0.072 | [5] 0.006 | quisinostat -0.054 | tipifarnib -0.096 | [6] 0.011 | [7] 0.025 | [8] -0.085

2 successive entries already listed:
MDH1 isoform 3 (UniProt P40925)
inactive: lapatinib -0.024 | pictilisib 0.016 | crizotinib 0.027 | [1] -0.021 | duvelisib -0.011 | gandotinib 0 | tozasertib 0.002 | doramapimod -0.023 | bafetinib 0.085 | [2] -0.061 | nilotinib 0.001 | [3] 0.013 | dasatinib 0.01 | [4] 0.033 | [5] 0.001 | quisinostat 0.052 | tipifarnib 0.029 | [6] -0.034 | [7] -0.037 | [8] 0.004

MCU (UniProt Q8NE86)
active: gandotinib -0.311
inactive: lapatinib -0.145 | pictilisib -0.041 | crizotinib -0.125 | [1] -0.03 | duvelisib 0.037 | tozasertib -0.02 | doramapimod 0.085 | bafetinib -0.108 | [2] 0.032 | nilotinib -0.044 | [3] 0.012 | dasatinib -0.065 | [4] 0.072 | [5] 0.006 | quisinostat -0.054 | tipifarnib -0.096 | [6] 0.011 | [7] 0.025 | [8] -0.085

Later entries.

MAX (UniProt P61244)
inactive: lapatinib -0.039 | pictilisib 0.075 | crizotinib 0.009 | [1] -0.003 | duvelisib 0.001 | gandotinib 0.068 | tozasertib 0.01 | doramapimod -0.053 | bafetinib 0.137 | [2] -0.039 | nilotinib 0.006 | [3] -0.023 | dasatinib 0.046 | [4] 0.029 | [5] 0.009 | quisinostat 0.015 | tipifarnib 0.026 | [6] -0.002 | [7] -0.024 | [8] 0
